Columns and labels:
[1] = test system: H22 liver cancer model; test: Antitumor experiment against H22 tumor bearing mice; assay type: in vivo; details: 10 days, x ± s
From the text: Antitumor Experiment of C310-6 Against H22 Tumor Bearing Mice
H22 tumor bearing mice were adopted to observe the effect of the anti-liver cancer of five classes of mixtures.
H22 tumor bearing mouse inoculated with the tumor for 8-13 days and in good condition was killed by dislocation. Body surface of the mouse was disinfected by alcohol. The tumors were separated from the mouse and placed in sterile petri dish containing normal saline in a sterile environment (super clean bench). The tumors were cut into small piece and transferred to a tissue homogenizer, the normal saline was added with a volume ratio of the tumor piece to the normal saline being 1:3, a resulting homogenate was put into a 50 mL sterile centrifuge tube. 0.2 mL of the homogenate was inoculated to right axilla of each C57BL/6 mouse by 1 mL syringe. The tumor cell suspension was prepared in the sterile environment (the super clean bench), and the serial operations from separation of the abdominal dropsy of the tumor to the tumor inoculation were accomplished in 60 min
(§1) Oral agent of C310-6: a certain weight of C310-6 sample was placed in a mortar, and Tween-80 having a volume of 2% of a certain volume of a solvent was added and fully ground. Thereafter, the normal saline was added and fully stirred to form a solution. Solutions having a concentration of the C310-6 sample of 24 mg/mL, 8 mg/mL, and 2.7 mg/mL were prepared.
(§2) Oral agent of CTX: CTX pill was removed from a film and a certain amount of the pill was placed in a mortar. A certain volume of normal saline was added, fully ground, and mixed to prepare a solution having a concentration of CTX to be 3.4 mg/mL.
(§3) 60 experimental mice were divided into 6 groups with each group having 10 mice, a half of the mice being female and another half of the mice being male. The groups are specifically as follows: 1) group administered with a low dose of C310-6 (27 mg/kg), 2) group administered with middle dose of C310-6 (80 mg/kg), 3) group administered with high dose of C310-6 (240 mg/kg), 4) group administered with CTX, 5) model group, and 6) blank control group. The above groups, except the model group and the blank control group, are administered with 0.3 mL of the drugs once a day after the injection of the tumor suspension, and the administration was lasted for 10 days. The model group and the blank control group are administered orally with equal volume of aqua solutions containing 2 v. % of Tween-80 for 10 days.
(§4) The weight and food intake of the mice were weighed and recorded every day, and a net weight of each mouse after tumor removal was calculated at the last time.
(§5) The separated tumor tissue was weighed, and the inhibition rate on the tumor growth was calculated according to the following equation: […]

[2] = test system: Lewis lung cancer model; test: Anti-Lewis tumor experiment (Lewis lung cancer bearing mouse); assay type: in vivo; details: Lewis mice, 10 days, x ± s
From the text: The purpose of the experiment was adopting the Lewis tumor bearing mouse model to observe the antitumor effect of C310-6.
Tumor bearing mouse inoculated with the tumor for 8-13 days and in good condition was killed by dislocation. Body surface of the mouse was disinfected by alcohol. The tumors were separated from the mouse and placed in sterile petri dish containing normal saline in a sterile environment (super clean bench). The tumors were cut into small piece and transferred to a tissue homogenizer, the normal saline was added with a volume ratio of the tumor piece to the normal saline being 1:3, a resulting homogenate was put into a 50 mL sterile centrifuge tube. 0.2 mL of the homogenate was inoculated to right axilla of each KM mouse by 1 mL syringe. The tumor cell suspension was prepared in the sterile environment (the super clean bench), and the serial operations from the tumor separation to the tumor inoculation were accomplished in 60 min
as §1, §2
as §3, with “0.2” for “0.3”
as §4, §5

| Compound | Liver weight (g) ([1]; 27 mg/kg oral once a day) | Liver weight (g) ([1]; 80 mg/kg oral once a day) | Liver weight ([1]; 240 mg/kg oral once a day) [g] | Liver weight ([2]; 27 mg/kg oral once a day) [g] | Liver weight ([2]; 80 mg/kg oral once a day) [g] | Liver weight ([2]; 240 mg/kg oral once a day) [g] | Liver weight ([1]; 20 mg/kg oral once a day) [g] | Liver weight ([2]; 20 mg/kg oral once a day) [g] |
| --- | --- | --- | --- | --- | --- | --- | --- | --- |
| CC(C)[C@@H](C)/C=C/[C@H](C)[C@@H]1CC[C@@H]2C3=CC=C4C[C@H](O)CC[C@@]4(C)[C@@H]3CC[C@]21C [C310-6, (3α,9β,10α,13α,14β,17α,20S,22E)-ergosta-5,7,22-trien-3-ol] | 1.67 ± 0.53∘ g | 1.87 ± 0.52∘∘ g | 1.57 ± 0.30 | 0.12 ± 0.02 | 0.12 ± 0.03 | 0.13 ± 0.02 |  |  |
| O=P1(N(CCCl)CCCl)NCCCO1 (centres unmarked) [CTX, cyclophosphamide, reference compound] |  |  |  |  |  |  | 1.26 ± 0.22 | 0.12 ± 0.02 |

Reference: patent US9896474B2, “(3A,9B,10A,13A,14B,17A,20S,22E)-ergosta-5,7,22-trien-3-ol and methods of preparing and using the same” (priority 2014, dated 2018)
